Here are results for three substances from paper PMC10616178.

Protein sequences, listed by entry. Tags and fused reporters are not part of them.
UniProt Q9CUN6: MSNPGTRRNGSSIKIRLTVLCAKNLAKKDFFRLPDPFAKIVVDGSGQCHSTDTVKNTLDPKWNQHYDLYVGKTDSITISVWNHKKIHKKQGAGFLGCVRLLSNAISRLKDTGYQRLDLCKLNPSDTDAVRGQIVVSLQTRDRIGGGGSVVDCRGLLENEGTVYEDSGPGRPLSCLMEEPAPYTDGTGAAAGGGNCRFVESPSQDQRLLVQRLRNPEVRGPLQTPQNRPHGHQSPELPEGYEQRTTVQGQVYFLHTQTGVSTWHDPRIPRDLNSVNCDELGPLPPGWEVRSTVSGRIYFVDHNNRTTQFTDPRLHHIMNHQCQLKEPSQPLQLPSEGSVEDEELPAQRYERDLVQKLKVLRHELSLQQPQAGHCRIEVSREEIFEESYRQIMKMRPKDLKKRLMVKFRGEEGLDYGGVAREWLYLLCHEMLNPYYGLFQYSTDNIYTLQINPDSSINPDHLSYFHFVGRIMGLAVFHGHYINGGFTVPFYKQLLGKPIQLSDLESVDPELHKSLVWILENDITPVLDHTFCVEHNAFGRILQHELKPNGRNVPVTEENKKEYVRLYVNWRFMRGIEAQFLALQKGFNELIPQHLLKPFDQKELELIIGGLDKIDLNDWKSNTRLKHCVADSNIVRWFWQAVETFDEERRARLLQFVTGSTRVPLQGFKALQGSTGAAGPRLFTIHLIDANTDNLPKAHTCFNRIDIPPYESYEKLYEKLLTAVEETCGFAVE
UniProt P26039: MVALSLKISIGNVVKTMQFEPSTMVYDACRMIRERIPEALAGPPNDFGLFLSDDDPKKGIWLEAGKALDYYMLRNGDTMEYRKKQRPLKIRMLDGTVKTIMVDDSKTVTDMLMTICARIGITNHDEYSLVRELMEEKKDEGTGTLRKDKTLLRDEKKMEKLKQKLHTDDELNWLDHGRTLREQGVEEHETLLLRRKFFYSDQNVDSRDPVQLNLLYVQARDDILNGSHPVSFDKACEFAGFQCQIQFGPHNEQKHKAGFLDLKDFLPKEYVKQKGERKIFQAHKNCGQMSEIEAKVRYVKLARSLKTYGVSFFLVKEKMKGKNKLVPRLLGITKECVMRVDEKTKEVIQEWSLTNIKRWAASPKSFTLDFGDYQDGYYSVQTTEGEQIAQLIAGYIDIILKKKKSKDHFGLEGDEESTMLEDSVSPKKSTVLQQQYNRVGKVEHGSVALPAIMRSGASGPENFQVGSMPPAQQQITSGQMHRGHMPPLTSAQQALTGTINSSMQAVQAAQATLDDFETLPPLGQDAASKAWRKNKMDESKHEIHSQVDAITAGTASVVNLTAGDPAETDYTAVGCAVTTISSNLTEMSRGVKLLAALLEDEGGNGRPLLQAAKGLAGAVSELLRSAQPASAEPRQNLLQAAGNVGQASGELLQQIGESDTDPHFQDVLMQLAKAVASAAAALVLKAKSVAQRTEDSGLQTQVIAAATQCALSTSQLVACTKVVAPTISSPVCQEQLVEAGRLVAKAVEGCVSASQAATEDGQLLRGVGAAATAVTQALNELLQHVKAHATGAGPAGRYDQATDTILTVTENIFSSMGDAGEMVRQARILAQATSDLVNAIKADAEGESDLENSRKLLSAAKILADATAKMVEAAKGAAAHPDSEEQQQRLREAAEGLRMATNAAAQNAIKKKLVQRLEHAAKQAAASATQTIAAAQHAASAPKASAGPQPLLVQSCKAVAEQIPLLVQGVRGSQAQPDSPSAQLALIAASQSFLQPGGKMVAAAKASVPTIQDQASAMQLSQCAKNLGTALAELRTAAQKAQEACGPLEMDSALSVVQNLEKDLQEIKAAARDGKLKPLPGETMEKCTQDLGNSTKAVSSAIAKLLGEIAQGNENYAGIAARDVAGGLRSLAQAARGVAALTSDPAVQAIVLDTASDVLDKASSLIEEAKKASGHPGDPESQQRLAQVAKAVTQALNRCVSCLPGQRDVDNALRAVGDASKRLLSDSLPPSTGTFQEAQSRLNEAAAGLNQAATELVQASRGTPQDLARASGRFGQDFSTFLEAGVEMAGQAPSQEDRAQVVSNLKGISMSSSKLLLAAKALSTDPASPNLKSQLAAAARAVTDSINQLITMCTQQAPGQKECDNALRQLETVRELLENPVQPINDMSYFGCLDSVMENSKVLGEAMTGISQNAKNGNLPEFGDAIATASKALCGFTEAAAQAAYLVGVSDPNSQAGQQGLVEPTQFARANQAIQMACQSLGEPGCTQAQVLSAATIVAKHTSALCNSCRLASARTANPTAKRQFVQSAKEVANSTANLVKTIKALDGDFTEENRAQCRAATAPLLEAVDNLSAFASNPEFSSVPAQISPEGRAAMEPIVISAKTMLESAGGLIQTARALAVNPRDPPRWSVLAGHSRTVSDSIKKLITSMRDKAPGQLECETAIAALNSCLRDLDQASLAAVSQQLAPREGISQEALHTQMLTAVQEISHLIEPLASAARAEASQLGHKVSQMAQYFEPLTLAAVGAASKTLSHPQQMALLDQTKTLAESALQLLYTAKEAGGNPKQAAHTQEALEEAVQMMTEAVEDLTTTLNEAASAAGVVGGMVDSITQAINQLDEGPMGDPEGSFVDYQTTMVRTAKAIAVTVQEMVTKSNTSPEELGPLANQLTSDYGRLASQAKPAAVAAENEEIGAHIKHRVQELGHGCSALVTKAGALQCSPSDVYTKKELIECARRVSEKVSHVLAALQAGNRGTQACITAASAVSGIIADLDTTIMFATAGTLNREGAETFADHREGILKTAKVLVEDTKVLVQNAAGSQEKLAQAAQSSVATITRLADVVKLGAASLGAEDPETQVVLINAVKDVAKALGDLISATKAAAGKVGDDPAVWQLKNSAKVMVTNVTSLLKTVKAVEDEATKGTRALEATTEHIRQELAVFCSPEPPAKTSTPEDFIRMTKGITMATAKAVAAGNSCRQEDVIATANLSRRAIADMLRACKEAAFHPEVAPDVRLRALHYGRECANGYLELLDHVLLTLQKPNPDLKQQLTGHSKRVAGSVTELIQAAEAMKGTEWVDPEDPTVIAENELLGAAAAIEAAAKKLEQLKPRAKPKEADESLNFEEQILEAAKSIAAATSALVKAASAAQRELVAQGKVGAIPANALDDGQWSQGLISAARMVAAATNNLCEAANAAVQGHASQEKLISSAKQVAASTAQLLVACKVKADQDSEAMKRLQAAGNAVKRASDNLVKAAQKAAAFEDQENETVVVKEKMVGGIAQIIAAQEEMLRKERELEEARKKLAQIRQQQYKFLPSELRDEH
UniProt P52631: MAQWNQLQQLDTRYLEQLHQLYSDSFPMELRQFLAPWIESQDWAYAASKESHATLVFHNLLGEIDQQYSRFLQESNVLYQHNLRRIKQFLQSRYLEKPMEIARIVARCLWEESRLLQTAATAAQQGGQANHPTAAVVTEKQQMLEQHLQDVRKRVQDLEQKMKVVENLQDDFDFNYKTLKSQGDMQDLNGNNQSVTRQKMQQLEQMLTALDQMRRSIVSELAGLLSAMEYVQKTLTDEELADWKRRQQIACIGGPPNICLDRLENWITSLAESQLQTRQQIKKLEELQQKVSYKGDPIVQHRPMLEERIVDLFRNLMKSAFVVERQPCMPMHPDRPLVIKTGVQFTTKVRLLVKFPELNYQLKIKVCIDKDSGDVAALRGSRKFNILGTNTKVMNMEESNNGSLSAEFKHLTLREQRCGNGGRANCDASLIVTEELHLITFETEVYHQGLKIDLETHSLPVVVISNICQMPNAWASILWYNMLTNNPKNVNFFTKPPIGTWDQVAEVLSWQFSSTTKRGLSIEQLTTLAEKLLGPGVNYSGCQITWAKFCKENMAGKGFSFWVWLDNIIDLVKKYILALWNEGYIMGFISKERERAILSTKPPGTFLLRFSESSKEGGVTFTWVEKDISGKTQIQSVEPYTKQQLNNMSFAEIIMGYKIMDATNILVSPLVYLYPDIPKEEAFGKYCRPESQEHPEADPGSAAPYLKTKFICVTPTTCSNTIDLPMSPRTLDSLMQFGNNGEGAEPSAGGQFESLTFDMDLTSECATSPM
UniProt P42227: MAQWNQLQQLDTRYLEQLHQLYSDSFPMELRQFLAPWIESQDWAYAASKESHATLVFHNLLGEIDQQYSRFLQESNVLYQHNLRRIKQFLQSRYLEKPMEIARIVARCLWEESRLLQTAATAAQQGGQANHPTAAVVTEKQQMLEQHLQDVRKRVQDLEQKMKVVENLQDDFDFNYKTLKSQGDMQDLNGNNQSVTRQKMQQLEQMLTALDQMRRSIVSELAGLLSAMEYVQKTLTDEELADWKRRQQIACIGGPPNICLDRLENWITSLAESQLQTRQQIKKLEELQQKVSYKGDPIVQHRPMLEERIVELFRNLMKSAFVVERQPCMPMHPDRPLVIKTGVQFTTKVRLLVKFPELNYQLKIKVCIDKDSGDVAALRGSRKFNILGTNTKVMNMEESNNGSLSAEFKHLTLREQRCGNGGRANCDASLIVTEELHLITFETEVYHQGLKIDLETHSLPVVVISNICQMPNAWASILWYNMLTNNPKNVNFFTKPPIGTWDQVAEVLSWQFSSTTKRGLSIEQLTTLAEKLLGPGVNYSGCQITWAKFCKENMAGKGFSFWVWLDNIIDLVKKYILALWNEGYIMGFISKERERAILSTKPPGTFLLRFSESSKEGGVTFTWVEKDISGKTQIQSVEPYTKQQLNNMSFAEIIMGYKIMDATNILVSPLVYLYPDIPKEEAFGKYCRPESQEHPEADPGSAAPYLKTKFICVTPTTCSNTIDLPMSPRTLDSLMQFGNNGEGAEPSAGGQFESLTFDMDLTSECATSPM

No constants are given. Whether binding was seen depends on the method and setting. In cells and extracts the contact can be indirect. Some entries that bind do so weakly or less than the wild type.

The target of assay [1] is smad ubiquitination regulatory factor 1 (Smurf1) (UniProt Q9CUN6). As to the kind of experiment: co-IP; HEK293T cells transfected with the indicated plasmids, with or without Talin-1 and Smurf1 overexpression (Fig. 5D, E, H, I); lysed 48 h after transfection in IP buffer (50 mM Tris-HCl pH 8.0, 150 mM NaCl, 0.5% sodium deoxycholate, 1% NP-40), antibodies overnight at 4 °C, western blot. (A western blot detects proteins with antibodies after separation by electrophoresis.)

A further assay concerns the target Talin-1 (UniProt P26039). As to the kind of experiment: co-IP; INS1 cells transiently transfected with Talin-1 (Fig. 4P, 5B, C) or with siTln1 or siNC (Fig. 5F, G); lysed in IP buffer (50 mM Tris-HCl pH 8.0, 150 mM NaCl, 0.5% sodium deoxycholate, 1% NP-40), precleared with Protein A/G-agarose, antibodies overnight at 4 °C, western blot.

In the case of Talin-1 (from UniProt P26039 1-2541), the binding result in assay [1] is “binds”.
Regarding “signal transducer and activator of transcription 3 (Stat3) (from UniProt P52631 1-770)”, in the assay with Talin-1, the binding entry is “no binding”.
Consider “signal transducer and activator of transcription 3 (Stat3) (from UniProt P42227 1-770)”, for which, in assay [1], the binding result is listed as “binds”.
